pIC50: −log10 of the molar value. Structures were worked out from names or drawings and are uncertain.

By UniProt entry, the sequences of proteins in these tests, tags left out.
UniProt Q13191, whole entry: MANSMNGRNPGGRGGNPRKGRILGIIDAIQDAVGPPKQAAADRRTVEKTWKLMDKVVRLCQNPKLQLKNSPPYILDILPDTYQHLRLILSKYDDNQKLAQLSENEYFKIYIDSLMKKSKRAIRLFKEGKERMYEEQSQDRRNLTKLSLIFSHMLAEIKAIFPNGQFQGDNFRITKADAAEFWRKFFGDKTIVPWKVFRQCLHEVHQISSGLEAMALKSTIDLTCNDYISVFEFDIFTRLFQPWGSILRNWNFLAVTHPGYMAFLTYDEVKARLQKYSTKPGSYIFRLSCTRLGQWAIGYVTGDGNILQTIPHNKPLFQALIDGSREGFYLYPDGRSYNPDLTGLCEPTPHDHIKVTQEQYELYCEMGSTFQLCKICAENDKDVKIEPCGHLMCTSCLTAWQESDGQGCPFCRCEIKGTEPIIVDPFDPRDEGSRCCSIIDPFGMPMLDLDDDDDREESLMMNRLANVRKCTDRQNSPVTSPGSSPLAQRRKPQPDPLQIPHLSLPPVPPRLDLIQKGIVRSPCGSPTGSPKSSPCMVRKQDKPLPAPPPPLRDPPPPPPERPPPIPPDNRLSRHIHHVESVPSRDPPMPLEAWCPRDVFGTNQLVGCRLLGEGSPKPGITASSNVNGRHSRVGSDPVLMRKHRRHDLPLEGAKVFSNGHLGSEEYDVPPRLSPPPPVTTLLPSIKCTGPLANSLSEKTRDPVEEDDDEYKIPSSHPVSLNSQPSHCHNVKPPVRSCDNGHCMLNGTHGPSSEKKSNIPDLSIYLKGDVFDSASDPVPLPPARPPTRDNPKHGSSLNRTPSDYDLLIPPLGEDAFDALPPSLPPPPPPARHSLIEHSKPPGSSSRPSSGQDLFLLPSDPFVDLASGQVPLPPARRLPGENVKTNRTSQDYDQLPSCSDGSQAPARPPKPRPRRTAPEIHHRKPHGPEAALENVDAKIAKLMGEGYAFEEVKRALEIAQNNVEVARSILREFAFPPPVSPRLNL

In this assay the target is CBL-B (Homo sapiens, UniProt Q13191). The assay is described as follows: CBL-B TR-FRET IC50 screening (E1/E2 ubiquitination, Biotin-Ubiquitin, Anti GST-Tb donor / Streptavidin-d2 acceptor). To be noted: read-out: CBL-B TR-FRET activity IC50; CBL-B 10 nM final; 11-point titration from 100 uM; binned A-F. The protocol: Example 625. IC50 Screening
• a) Thaw UBE1, UBCH5b, CBL-B, Biotin-Ubiquitin, CBL-B assay buffer, and ATP on ice. Aliquot each protein, CBL-B assay buffer, and ATP into single-use aliquots and stored at −80° C. immediately. • b) Transfer 100 mL test compound (10 mM stock solution, start at 100 uM, 1:3 dilution, 11 points) and then backfill 100 mL DMSO to each well designated for the “Test compound” by Echo. • c) Transfer 200 mL DMSO to each well designated for the “High Control”, “Low Control” by Echo. • d) Carefully calculate the amount of proteins needed. Prepare appropriate amounts of diluted proteins; dilute only the amount required for the assay. […] Keep the diluted reagents on ice until use. • e) Add 2.5 μl diluted CBL-B (40 nM) for the “High Control” and “Test compound”, the final concentration is 10 nM. For the “Low Control”, add 2.5 μL buffer each well. Pre-incubate for 15 min. • f) Centrifuge at 1000 rpm for 1 minute and shake plate at a speed of 600 rpm for 5 minutes. • g) Prepare the Master Mixture (E1E2) using diluted reagents: N wells×(1 μl Biotin-Ub+0.5 μl diluted UBE1+1 μl diluted UBCH5+5 μl ATP). […] Incubate at room temperature for one hour. • k) Read the fluorescent intensity with EnVison2104 (PerkinElmer Life Sciences). […] Tb-donor emission should be measured at 615 nM followed by dye-acceptor emission at 665 nm. […]

As for `Cn1cnnc1CC1(c2cccc(-n3cc4c(C(F)(F)F)cc(CN5CC(O)C5)cn4c3=O)c2)COC1` [Compound 61], the pIC50 is over 7.00.

For the origin of these results see patent US20240228482A1, “COMPOUNDS, COMPOSITIONS AND METHODS OF TREATING CANCER” (HOTSPOT THERAPEUTICS, INC., priority 2021, published 2024).
